These are yes or no findings as the source states them, for the method shown. In cells and extracts the contact can be indirect. Some entries that bind do so weakly or less than the wild type.

By UniProt entry, the sequences of proteins in these tests, tags left out. Residues count along the entry.
UniProt O75197, residues 32-1615: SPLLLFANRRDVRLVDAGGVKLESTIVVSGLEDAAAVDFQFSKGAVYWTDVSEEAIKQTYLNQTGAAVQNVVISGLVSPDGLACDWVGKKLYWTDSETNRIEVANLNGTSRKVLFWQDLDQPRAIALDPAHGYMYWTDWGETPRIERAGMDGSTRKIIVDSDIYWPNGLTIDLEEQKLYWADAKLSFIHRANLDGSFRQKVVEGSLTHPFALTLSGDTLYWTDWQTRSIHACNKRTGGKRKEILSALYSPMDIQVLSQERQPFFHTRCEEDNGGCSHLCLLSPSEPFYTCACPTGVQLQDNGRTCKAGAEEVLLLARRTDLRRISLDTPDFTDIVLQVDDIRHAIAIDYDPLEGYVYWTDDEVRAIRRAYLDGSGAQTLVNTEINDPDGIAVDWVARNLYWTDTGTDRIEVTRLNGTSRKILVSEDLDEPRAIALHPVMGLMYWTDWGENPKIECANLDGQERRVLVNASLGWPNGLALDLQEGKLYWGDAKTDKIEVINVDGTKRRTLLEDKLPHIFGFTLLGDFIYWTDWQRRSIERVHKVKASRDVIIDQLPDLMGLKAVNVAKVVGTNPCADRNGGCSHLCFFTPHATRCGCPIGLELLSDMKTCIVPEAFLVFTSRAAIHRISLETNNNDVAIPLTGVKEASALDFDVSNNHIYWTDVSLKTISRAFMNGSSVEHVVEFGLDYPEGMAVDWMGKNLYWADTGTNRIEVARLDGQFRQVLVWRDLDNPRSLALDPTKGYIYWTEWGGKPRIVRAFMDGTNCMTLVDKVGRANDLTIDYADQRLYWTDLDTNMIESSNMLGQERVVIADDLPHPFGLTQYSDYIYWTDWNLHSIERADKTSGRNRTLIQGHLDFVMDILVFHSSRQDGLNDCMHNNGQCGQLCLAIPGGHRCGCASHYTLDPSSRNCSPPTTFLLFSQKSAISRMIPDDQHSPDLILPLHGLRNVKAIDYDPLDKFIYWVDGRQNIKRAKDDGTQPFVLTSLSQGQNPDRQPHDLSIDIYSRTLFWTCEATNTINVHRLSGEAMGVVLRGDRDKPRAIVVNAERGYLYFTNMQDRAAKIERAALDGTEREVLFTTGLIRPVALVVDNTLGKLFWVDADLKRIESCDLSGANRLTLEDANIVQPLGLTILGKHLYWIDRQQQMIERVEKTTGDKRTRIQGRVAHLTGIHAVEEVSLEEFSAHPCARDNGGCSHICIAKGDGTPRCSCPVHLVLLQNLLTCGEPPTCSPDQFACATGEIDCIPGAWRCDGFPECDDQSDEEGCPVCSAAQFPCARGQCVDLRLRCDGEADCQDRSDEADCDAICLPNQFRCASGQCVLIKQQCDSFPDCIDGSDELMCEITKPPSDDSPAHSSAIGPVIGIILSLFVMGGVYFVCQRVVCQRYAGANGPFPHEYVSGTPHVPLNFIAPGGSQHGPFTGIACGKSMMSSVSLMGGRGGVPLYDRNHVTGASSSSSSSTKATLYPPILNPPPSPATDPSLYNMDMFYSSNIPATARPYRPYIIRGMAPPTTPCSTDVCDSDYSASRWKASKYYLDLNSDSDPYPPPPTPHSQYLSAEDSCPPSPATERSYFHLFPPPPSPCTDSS

Among the data in paper PMC6935199 are binding values, retold here.

The experiment deals with T1, Nucleoporin 37 (UniProt Q8NFH4).
T1 sequence: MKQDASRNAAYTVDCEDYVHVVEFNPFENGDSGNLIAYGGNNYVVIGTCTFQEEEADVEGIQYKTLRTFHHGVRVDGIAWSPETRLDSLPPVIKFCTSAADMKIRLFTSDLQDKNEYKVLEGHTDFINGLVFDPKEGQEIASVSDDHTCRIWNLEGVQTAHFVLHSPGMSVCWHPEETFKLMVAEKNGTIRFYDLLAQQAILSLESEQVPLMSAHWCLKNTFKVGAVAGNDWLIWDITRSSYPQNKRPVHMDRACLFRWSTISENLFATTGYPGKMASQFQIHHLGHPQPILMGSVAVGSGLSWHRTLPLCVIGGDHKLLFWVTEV
Briefly: co-IP; plasmids transiently transfected into HEK293 cells for 48 h; NP-40 lysis buffer; IP with Anti-Flag M2 Affinity Gel or anti-c-Myc agarose, mouse IgG agarose as negative control; 4 °C for 2 h; washed with TBST; Western blot. A general note: In western blotting, separated proteins are transferred to a membrane and probed.

With “Low-density lipoprotein-related receptor 5 (from UniProt O75197 32-1615)”, the binding result is listed as “binds”.
